Reference: US20250283871A1, “COMPOSITIONS AND METHODS FOR MODULATING THE INTERACTION BETWEEN SS18-SSX FUSION ONCOPROTEIN AND NUCLEOSOMES” (Dana-Farber Cancer Institute, Inc., priority 2020, published 2025)

Test system: BAF complex subunits and histone proteins
Assay: Mass spectrometry proteomics of purified HA-SS18 WT and HA-SS18-SSX1 complexes (Tables 5A-5E)
Design: species or system human
Details: for Total / Unique: HA-SS18SSX1_CHR_peptides; for Total: total peptides of the identified protein; for Unique: unique peptides of the identified protein; for Total (total peptides) / Unique (unique peptides) / Total (peptides) / Unique (peptides): HEK-293T
[1] = HA-SS18SSX1 purification, NE (soluble nuclear extract) fraction, peptides per identified protein
[2] = HA-SS18WT_CHR_peptides: HA-SS18 WT purification from nuclease-treated solubilized chromatin (CHR), label = protein identified
[3] = HA-SS18WT_NE_peptides: HA-SS18 WT complexes purified from nuclear extract (NE), label = protein identified (Gene Symbol)
[4] = HA-SS18WT_CHR_peptides: protein identified in HA-SS18 WT BAF complex purification from nuclease-treated solubilized chromatin (CHR)

| Molecule | Total | Unique | Total (total peptides) [1] | Unique (unique peptides) [1] | Total (peptides) [2] | Unique (peptides) [2] | Total (peptides) [3] | Unique (peptides) [3] | Total (total peptides) [4] | Unique (unique peptides) [4] |
| --- | --- | --- | --- | --- | --- | --- | --- | --- | --- | --- |
| RBM14 (protein, UniProt Q96PK6 1-669, looked up) RNA-binding protein 14: MKIFVGNVDGADTTPEELAALFAPYGTVMSCAVMKQFAFVHMRENAGALRAIEALHGHELRPGRALVVEMSRPRPLNTWKIFVGNVSAACTSQELRSLFERRGRVIECDVVKDYAFVHMEKEADAKAAIAQLNGKEVKGKRINVELSTKGQKKGPGLAVQSGDKTKKPGAGDTAFPGTGGFSATFDYQQAFGNSTGGFDGQARQPTPPFFGRDRSPLRRSPPRASYVAPLTAQPATYRAQPSVSLGAAYRAQPSASLGVGYRTQPMTAQAASYRAQPSVSLGAPYRGQLASPSSQSAAASSLGPYGGAQPSASALSSYGGQAAAASSLNSYGAQGSSLASYGNQPSSYGAQAASSYGVRAAASSYNTQGAASSLGSYGAQAASYGAQSAASSLAYGAQAASYNAQPSASYNAQSAPYAAQQAASYSSQPAAYVAQPATAAAYASQPAAYAAQATTPMAGSYGAQPVVQTQLNSYGAQASMGLSGSYGAQSAAAATGSYGAAAAYGAQPSATLAAPYRTQSSASLAASYAAQQHPQAAASYRGQPGNAYDGAGQPSAAYLSMSQGAVANANSTPPPYERTRLSPPRASYDDPYKKAVAMSKRYGSDRRLAELSDYRRLSESQLSFRRSPTKSSLDYRRLPDAHSDYARYSGSYNDYLRAAQMHSGYQRRM | 4 | 4 | 4 | 4 | 6 | 6 | 3 | 3 | – | – |
| GATAD2A (protein, UniProt Q86YP4 1-633, looked up) Transcriptional repressor …: MTEEACRTRSQKRALERDPTEDDVESKKIKMERGLLASDLNTDGDMRVTPEPGAGPTQGLLRATEATAMAMGRGEGLVGDGPVDMRTSHSDMKSERRPPSPDVIVLSDNEQPSSPRVNGLTTVALKETSTEALMKSSPEERERMIKQLKEELRLEEAKLVLLKKLRQSQIQKEATAQKPTGSVGSTVTTPPPLVRGTQNIPAGKPSLQTSSARMPGSVIPPPLVRGGQQASSKLGPQASSQVVMPPLVRGAQQIHSIRQHSSTGPPPLLLAPRASVPSVQIQGQRIIQQGLIRVANVPNTSLLVNIPQPTPASLKGTTATSAQANSTPTSVASVVTSAESPASRQAAAKLALRKQLEKTLLEIPPPKPPAPEMNFLPSAANNEFIYLVGLEEVVQNLLETQGRMSAATVLSREPYMCAQCKTDFTCRWREEKSGAIMCENCMTTNQKKALKVEHTSRLKAAFVKALQQEQEIEQRLLQQGTAPAQAKAEPTAAPHPVLKQVIKPRRKLAFRSGEARDWSNGAVLQASSQLSRGSATTPRGVLHTFSPSPKLQNSASATALVSRTGRHSERTVSAGKGSATSNWKKTPLSTGGTLAFVSPSLAVHKSSSAVDRQREYLLDMIPPRSIPQSATWK | 4 | 4 | – | – | 5 | 5 | – | – | – | – |
| DDX5 (protein, UniProt P17844 1-614, looked up) Probable ATP-dependent RNA …: MSGYSSDRDRGRDRGFGAPRFGGSRAGPLSGKKFGNPGEKLVKKKWNLDELPKFEKNFYQEHPDLARRTAQEVETYRRSKEITVRGHNCPKPVLNFYEANFPANVMDVIARQNFTEPTAIQAQGWPVALSGLDMVGVAQTGSGKTLSYLLPAIVHINHQPFLERGDGPICLVLAPTRELAQQVQQVAAEYCRACRLKSTCIYGGAPKGPQIRDLERGVEICIATPGRLIDFLECGKTNLRRTTYLVLDEADRMLDMGFEPQIRKIVDQIRPDRQTLMWSATWPKEVRQLAEDFLKDYIHINIGALELSANHNILQIVDVCHDVEKDEKLIRLMEEIMSEKENKTIVFVETKRRCDELTRKMRRDGWPAMGIHGDKSQQERDWVLNEFKHGKAPILIATDVASRGLDVEDVKFVINYDYPNSSEDYIHRIGRTARSTKTGTAYTFFTPNNIKQVSDLISVLREANQAINPKLLQLVEDRGSGRSRGRGGMKDDRRDRYSAGKRGGFNTFRDRENYDRGYSSLLKRDFGAKTQNGVYSAANYTNGSFGSNFVSAGIQTSFRTGNPTGTYQNGYDSTQQYGSNVPNMHNGMNQQAYAYPATAAAPMIGYPMPTGYSQ | 4 | 4 | 4 | 4 | 4 | 4 | 4 | 4 | – | – |
| GLE1 (protein, UniProt Q53GS7 1-698, looked up) mRNA export factor GLE1: MPSEGRCWETLKALRSSDKGRLCYYRDWLLRREDVLEECMSLPKLSSYSGWVVEHVLPHMQENQPLSETSPSSTSASALDQPSFVPKSPDASSAFSPASPATPNGTKGKDESQHTESMVLQSSRGIKVEGCVRMYELVHRMKGTEGLRLWQEEQERKVQALSEMASEQLKRFDEWKELKQHKEFQDLREVMEKSSREALGHQEKLKAEHRHRAKILNLKLREAEQQRVKQAEQERLRKEEGQIRLRALYALQEEMLQLSQQLDASEQHKALLKVDLAAFQTRGNQLCSLISGIIRASSESSYPTAESQAEAERALREMRDLLMNLGQEITRACEDKRRQDEEEAQVKLQEAQMQQGPEAHKEPPAPSQGPGGKQNEDLQVKVQDITMQWYQQLQDASMQCVLTFEGLTNSKDSQAKKIKMDLQKAATIPVSQISTIAGSKLKEIFDKIHSLLSGKPVQSGGRSVSVTLNPQGLDFVQYKLAEKFVKQGEEEVASHHEAAFPIAVVASGIWELHPRVGDLILAHLHKKCPYSVPFYPTFKEGMALEDYQRMLGYQVKDSKVEQQDNFLKRMSGMIRLYAAIIQLRWPYGNRQEIHPHGLNHGWRWLAQILNMEPLSDVTATLLFDFLEVCGNALMKQYQVQFWKMLILIKEDYFPRIEAITSSGQMGSFIRLKQFLEKCLQHKDIPVPKGFLTSSFWRS | 4 | 4 | – | – | – | – | – | – | 2 | 2 |
| MCM4 (protein, UniProt P33991 2-863, looked up) DNA replication licensing …: SSPASTPSRRGSRRGRATPAQTPRSEDARSSPSQRRRGEDSTSTGELQPMPTSPGVDLQSPAAQDVLFSSPPQMHSSAIPLDFDVSSPLTYGTPSSRVEGTPRSGVRGTPVRQRPDLGSAQKGLQVDLQSDGAAAEDIVASEQSLGQKLVIWGTDVNVAACKENFQRFLQRFIDPLAKEEENVGIDITEPLYMQRLGEINVIGEPFLNVNCEHIKSFDKNLYRQLISYPQEVIPTFDMAVNEIFFDRYPDSILEHQIQVRPFNALKTKNMRNLNPEDIDQLITISGMVIRTSQLIPEMQEAFFQCQVCAHTTRVEMDRGRIAEPSVCGRCHTTHSMALIHNRSLFSDKQMIKLQESPEDMPAGQTPHTVILFAHNDLVDKVQPGDRVNVTGIYRAVPIRVNPRVSNVKSVYKTHIDVIHYRKTDAKRLHGLDEEAEQKLFSEKRVELLKELSRKPDIYERLASALAPSIYEHEDIKKGILLQLFGGTRKDFSHTGRGKFRAEINILLCGDPGTSKSQLLQYVYNLVPRGQYTSGKGSSAVGLTAYVMKDPETRQLVLQTGALVLSDNGICCIDEFDKMNESTRSVLHEVMEQQTLSIAKAGIICQLNARTSVLAAANPIESQWNPKKTTIENIQLPHTLLSRFDLIFLLLDPQDEAYDRRLAHHLVALYYQSEEQAEEELLDMAVLKDYIAYAHSTIMPRLSEEASQALIEAYVDMRKIGSSRGMVSAYPRQLESLIRLAEAHAKVRLSNKVEAIDVEEAKRLHREALKQSATDPRTGIVDISILTTGMSATSRKRKEELAEALKKLILSKGKTPALKYQQLFEDIRGQSDIAITKDMFEEALRALADDDFLTVTGKTVRLL | 4 | 4 | – | – | 5 | 5 | – | – | – | – |
| DHX37 (protein, UniProt Q8IY37 1-1157, looked up) Probable ATP-dependent RNA …: MGKLRRRYNIKGRQQAGPGPSKGPPEPPPVQLELEDKDTLKGVDASNALVLPGKKKKKTKAPPLSKKEKKPLTKKEKKVLQKILEQKEKKSQRAEMLQKLSEVQASEAEMRLFYTTSKLGTGNRMYHTKEKADEVVAPGQEKISSLSGAHRKRRRWPSAEEEEEEEEESESELEEESELDEDPAAEPAEAGVGTTVAPLPPAPAPSSQPVPAGMTVPPPPAAAPPLPRALAKPAVFIPVNRSPEMQEERLKLPILSEEQVIMEAVAEHPIVIVCGETGSGKTTQVPQFLYEAGFSSEDSIIGVTEPRRVAAVAMSQRVAKEMNLSQRVVSYQIRYEGNVTEETRIKFMTDGVLLKEIQKDFLLLRYKVVIIDEAHERSVYTDILIGLLSRIVTLRAKRNLPLKLLIMSATLRVEDFTQNPRLFAKPPPVIKVESRQFPVTVHFNKRTPLEDYSGECFRKVCKIHRMLPAGGILVFLTGQAEVHALCRRLRKAFPPSRARPQEKDDDQKDSVEEMRKFKKSRARAKKARAEVLPQINLDHYSVLPAGEGDEDREAEVDEEEGALDSDLDLDLGDGGQDGGEQPDASLPLHVLPLYSLLAPEKQAQVFKPPPEGTRLCVVATNVAETSLTIPGIKYVVDCGKVKKRYYDRVTGVSSFRVTWVSQASADQRAGRAGRTEPGHCYRLYSSAVFGDFEQFPPPEITRRPVEDLILQMKALNVEKVINFPFPTPPSVEALLAAEELLIALGALQPPQKAERVKQLQENRLSCPITALGRTMATFPVAPRYAKMLALSRQHGCLPYAITIVASMTVRELFEELDRPAASDEELTRLKSKRARVAQMKRTWAGQGASLKLGDLMVLLGAVGACEYASCTPQFCEANGLRYKAMMEIRRLRGQLTTAVNAVCPEAELFVDPKMQPPTESQVTYLRQIVTAGLGDHLARRVQSEEMLEDKWRNAYKTPLLDDPVFIHPSSVLFKELPEFVVYQEIVETTKMYMKGVSSVEVQWIPALLPSYCQFDKPLEEPAPTYCPERGRVLCHRASVFYRVGWPLPAIEVDFPEGIDRYKHFARFLLEGQVFRKLASYRSCLLSSPGTMLKTWARLQPRTESLLRALVAEKADCHEALLAAWKKNPKYLLAEYCEWLPQAMHPDIEKAWPPTTVH | 4 | 4 | – | – | – | – | 2 | 2 | – | – |
| C1QBP (protein, UniProt Q07021 74-282, looked up) Complement component 1 Q …: LHTDGDKAFVDFLSDEIKEERKIQKHKTLPKMSGGWELELNGTEAKLVRKVAGEKITVTFNINNSIPPTFDGEEEPSQGQKVEEQEPELTSTPNFVVEVIKNDDGKKALVLDCHYPEDEVGQEDEAESDIFSIREVSFQSTGESEWKDTNYTLNTDSLDWALYDHLMDFLADRGVDNTFADELVELSTALEHQEYITFLEDLKSFVKSQ | 4 | 4 | 3 | 3 | – | – | 3 | 3 | 1 | 1 |
| IMP4 (protein, UniProt Q96G21 1-291, looked up) U3 small nucleolar …: MLRREARLRREYLYRKAREEAQRSAQERKERLRRALEENRLIPTELRREALALQGSLEFDDAGGEGVTSHVDDEYRWAGVEDPKVMITTSRDPSSRLKMFAKELKLVFPGAQRMNRGRHEVGALVRACKANGVTDLLVVHEHRGTPVGLIVSHLPFGPTAYFTLCNVVMRHDIPDLGTMSEAKPHLITHGFSSRLGKRVSDILRYLFPVPKDDSHRVITFANQDDYISFRHHVYKKTDHRNVELTEVGPRFELKLYMIRLGTLEQEATADVEWRWHPYTNTARKRVFLSTE | 4 | 4 | – | – | 3 | 3 | – | – | – | – |
